{
  "source": "PubChem BioAssay AID493014",
  "about": "(National Center for Advancing Translational Sciences (NCATS), 2011)",
  "experiment": "qHTS Assay to Find Inhibitors of Chronic Active B-Cell Receptor Signaling",
  "conditions": "ABC-DLBCL IkBa-CBG/CBR reporter, luminescence ratio (green luciferase fused to IkBa over red control in TMD8 lymphoma cells), 4 h",
  "outline": "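Compounds up to 46 uM were incubated four hours with TMD8 cells whose green CBG68 luciferase is fused to IkappaBalpha; red CBR luminescence normalised the signal, and concentration-effect curves were fitted to fusion, red and ratio data.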",
  "key": {"[1]": {"conditions": "measured here: CBR red luminescence, cell number"}},
  "note": "This is one part of the list. These are further read-outs of the screen, such as a control signal, another cell line or another target. No call is given for them. Compounds called inactive in the main read-out are mostly missing here. The note in brackets gives the kind of curve behind each potency; many fits are weak.",
  "data": [
    {"smiles": "O=C(COC(=O)c1ccccc1Cc1ccccc1)Nc1ccc(SC(F)F)cc1", "values": [
      {"measurement": "AC50", "setting": "[1]", "result": "29.1 µM [falling, single point]"}
    ]},
    {"smiles": "N#C/C(=C/c1ccc(O)c(O)c1)c1nc2ccccc2[nH]1", "values": [
      {"measurement": "AC50", "setting": "[1]", "result": "35.5 µM [falling, single point]"}
    ]},
    {"smiles": "CCCCc1ccc(NC(=O)Nc2cccnc2)cc1", "values": [
      {"measurement": "AC50", "setting": "[1]", "result": "35.5 µM [rising, single point]"},
      {"measurement": "AC50", "setting": "measured here: IkBa-CBG green luminescence", "result": "22.4 µM [falling, partial curve, poor fit]"}
    ]},
    {"smiles": "Cc1cc(NC(=O)Nc2ccc(Cl)cc2)n(C)n1", "values": [
      {"measurement": "AC50", "setting": "[1]", "result": "20 µM [rising, partial curve, poor fit]"}
    ]},
    {"smiles": "O=C1CCCC2=C1C(c1ccccc1)n1c(s/c(=C/c3cccc(F)c3)c1=O)=N2", "note": "(centres undefined)", "values": [
      {"measurement": "AC50", "setting": "[1]", "result": "29.1 µM [rising, partial curve, poor fit]"}
    ]},
    {"smiles": "CCc1ccc(NC(=O)CSC2=Nc3ccccc3C3=NC(CCC(=O)NCc4ccccc4)C(=O)N23)cc1", "note": "(centres undefined)", "values": [
      {"measurement": "AC50", "setting": "[1]", "result": "5.01 µM [falling, full curve]"}
    ]},
    {"smiles": "CCc1cc2c3c(c(=O)oc2cc1OCC(=O)OC)CCCC3", "values": [
      {"measurement": "AC50", "setting": "[1]", "result": "35.5 µM [rising, partial curve, poor fit]"}
    ]},
    {"smiles": "O=C(N/N=C\\c1ccc2c(c1)OCO2)c1cncc(Br)c1", "values": [
      {"measurement": "AC50", "setting": "[1]", "result": "1.12 µM [falling, full curve, poor fit]"}
    ]},
    {"smiles": "O=C(Nc1ccsc1C(=O)O)c1cccc(C(F)(F)F)c1", "values": [
      {"measurement": "AC50", "setting": "[1]", "result": "14.1 µM [falling, single point]"}
    ]},
    {"smiles": "COc1ccc(/C=C/C(=O)O)cc1O", "values": [
      {"measurement": "AC50", "setting": "[1]", "result": "6.51 µM [rising, single point]"}
    ]},
    {"smiles": "Fc1ccc2cc(-c3ccccc3)ncc2c1", "values": [
      {"measurement": "AC50", "setting": "[1]", "result": "23.1 µM [rising, single point]"}
    ]},
    {"smiles": "O=S(=O)(NCCc1csc(-c2ccccc2)n1)c1ccc2c(c1)OCCO2", "values": [
      {"measurement": "AC50", "setting": "[1]", "result": "4.61 µM [falling, single point]"}
    ]},
    {"smiles": "Cc1ccc(NC2Sc3ccccc3NC2=O)cc1Cl", "note": "(centres undefined)", "values": [
      {"measurement": "AC50", "setting": "[1]", "result": "7.94 µM [falling, partial curve, poor fit]"}
    ]},
    {"smiles": "CC(C)=CCOc1c2ccoc2cc2oc(=O)ccc12", "values": [
      {"measurement": "AC50", "setting": "[1]", "result": "23.1 µM [rising, partial curve]"}
    ]},
    {"smiles": "CCOC(=O)C1(Cc2ccccc2)CCN(Cc2cnn(CC)c2)CC1", "values": [
      {"measurement": "AC50", "setting": "[1]", "result": "14.1 µM [falling, partial curve, poor fit]"}
    ]},
    {"smiles": "CCOC(=O)[C@H]1[C@H]2COc3ccccc3[C@@H]2N2C(=O)c3cc(Cl)ccc3NC(=O)[C@@]12C", "values": [
      {"measurement": "AC50", "setting": "[1]", "result": "13 µM [falling, partial curve]"}
    ]},
    {"smiles": "O=C(CNC(=O)Cc1ccccc1)NCC(=O)OCC(=O)c1ccc(F)cc1", "values": [
      {"measurement": "AC50", "setting": "[1]", "result": "17.8 µM [rising, single point]"}
    ]},
    {"smiles": "CC(=O)Nc1c(C(N)=O)oc2ccc(Cl)cc12", "values": [
      {"measurement": "AC50", "setting": "[1]", "result": "1.58 µM [falling, full curve]"}
    ]}
  ]
}
